Measured values taken from PMC3564912, “Single Particle Electron Microscopy Analysis of the Bovine Anion Exchanger 1 Reveals a Flexible Linker Connecting the Cytoplasmic and Membrane Domains” (PLoS ONE, 2013).
Results are given in words; binding and its absence hold for the method and conditions named. Some results given as binding are weak or reduced against the parent protein; the word gives no strength.

Target: bovine anion exchanger 1 (AE1) (bovine) (UniProt Q9XSW5)
Test: negative staining electron microscopy, orthogonal tilt reconstruction and single particle analysis; freshly prepared AE1 dimers stained with 0.8% uranyl formate on carbon film; 174,197 particles; 2-fold symmetry imposed; 2.4 nm at 0.5 FSC; both purified

B1: bovine anion exchanger 1 (AE1) (natural protein, UniProt Q9XSW5 1-930, looked up)
chain: MGDPEEYEDQLEETLEQKEYEDHDSVSIPMEEAEGDTIQEEEAEARVNQLTDTDYHTTSQHPETHKVCVQLRELVMDEKNQEIQWMETARWVGLEENLGKDGIWGRPHLPYLNFWSLLELQKAFAKGTVLLDLPGKSLAEVANQLLDRFTFEGQIQPDDQDNLLRVLLLKHSHASDMEALGGVKPVVVTHSGDPSEPLLPQHPSLETELFCEQGEGSTRGHAPEILGKSPQDWEATLVLVGCARFLKRPVLGFVRLKEPMEPEPKPEGSEEPAVPVRFLIVLLGPEGPNINYTQLGRAAATLMSERVFWNDAYLAQSKETLVQSLEGFLDCSLVLPPLDAPSEKALLSLVPVQKELLRRRYLPSPAKPDPSIFKDLDVKKGPGDTPEDPLQRTGKLFGGLVRDIRRRYPRYLSDITDALSPQVLSAIIFIYFAALTPAITFGGLLGDKTENMIGVSELLLSTALQGIIFSLLGAQPLLVLGFSGPLLVFEEAFYSFCQTNNLEYIVGRVWIGFWLILLVVLVVAFEGSFLVRFISRYTQEIFSFLISLIFIYETFYKLVTIFQDHPLQKNYDHDVLTTPKPQAALPNTALLSLVLMAGTFFLAMMLRKFKNSSYFPGKLRRIIGDFGVPISILIMVMVDALIQDTYTQKLSVPEGLSVSNPTERDWLIHPLGIRVEFPIWMMFASALPALLVFILIFLESQITTLIISKPERKMVKGSGFHLDLLLIIGMGGVGAIFGMPWLSATTVRTVTHANALTVMSKDSTPGAVSQIQGVKEQRISGLLVAVLVGVSILMGPVLRHIPLAVLFGIFLYMGVTSLSGIQLFDRVLLLLKPRKYYPEVPYARRVKTWRMHLFTITQIVCLVVLWVVRSIKQISLALPFILILTVPLRRFLLPFIFRDMELKLLDADDVKLNLDEQNGQDEYDEVAMPV
notes: anion exchanger 1 (AE1, band 3), bovine, native protein from erythrocyte membranes; monomer about 100 kDa; Solubilised in dodecyl maltoside (0.03% DDM in the final buffer); The dimer fraction from size exclusion was used; also called bovine AE1; full-length AE1 dimer; source: purified from bovine erythrocyte membranes (ghosts; DDM extraction, DE-52 ion exchange, Superose 6 size exclusion)
B1 was tested, and the binding was “binds”.
